Record: PubChem BioAssay AID1259302 (Sanger Institute, 2017)

Assay: 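Kinome siRNAs acting in synergy with BYL719, cetuximab or trametinib in colorectal cancer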 (follow-up of hits)
System: human SW1116 colorectal cancer cells
Knock-down reagent: single siRNA against human genes
Challenge: anchor drugs BYL719 at 1 µM, cetuximab at 5 µg/ml or trametinib at 10 nM, each compared with DMSO vehicle; exposure time not given
Measurement: 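Viability relative to a pooled non-targeting control siRNA, averaged over replicates; for each anchor drug a synergy score weighs the joint effect against siRNA and drug alone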
Direction: synergy score with trametinib and synergy score with BYL719 and synergy score with cetuximab: higher = stronger synthetic lethal interaction with the drug; viability, siRNA with DMSO and viability, siRNA with trametinib: higher = more viable cells
Call rule: 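An siRNA is called active if its synergy score is above 0.10 for at least one of BYL719, cetuximab or trametinib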
This is an unselected part of 160 deposited reagents. Over the whole deposit, 122 (76%) are marked active. 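Most active calls come from the trametinib arm; viability under BYL719 or cetuximab treatment is not printed.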 The numbers tell different reagents against one gene apart. Viability is capped at 1. The record does not give: the amount of reagent, the time to read-out.

synergy score with trametinib | synergy score with BYL719 | synergy score with cetuximab | viability, siRNA with DMSO | viability, siRNA with trametinib | call | Target gene | reagent
0.109 | 0.0594 | 0.113 | 0.369 | 0.135 | active | PLK1 (GeneID 5347) | 1
0.0378 | -0.0802 | -0.000752 | 0.355 | 0.197 | inactive | PLK1 (GeneID 5347) | 2
0.103 | 0.0671 | 0.0966 | 0.391 | 0.156 | active | PLK1 (GeneID 5347) | 3
0.068 | -0.0355 | 0.0632 | 0.342 | 0.158 | inactive | PLK1 (GeneID 5347) | 4
0.105 | 0.0263 | 0.0951 | 0.895 | 0.488 | active | MPP3 (GeneID 4356) | 1
0.213 | -0.00514 | 0.0868 | 0.768 | 0.295 | active | MPP3 (GeneID 4356) | 2
0.391 | 0.182 | 0.245 | 0.75 | 0.105 | active | MPP3 (GeneID 4356) | 3
0.342 | 0.0355 | 0.152 | 0.694 | 0.117 | active | MPP3 (GeneID 4356) | 4
0.217 | 0.0193 | 0.0444 | 0.603 | 0.182 | active | HUNK (GeneID 30811) | 1
0.163 | -0.0527 | 0.0587 | 0.474 | 0.15 | active | HUNK (GeneID 30811) | 2
0.26 | 0.112 | 0.0995 | 0.884 | 0.325 | active | HUNK (GeneID 30811) | 3
0.334 | 0.153 | 0.141 | 0.81 | 0.202 | active | HUNK (GeneID 30811) | 4
0.268 | 0.00904 | 0.151 | 0.75 | 0.228 | active | PRAG1 (GeneID 157285) | 1
0.211 | 0.229 | 0.0641 | 0.831 | 0.338 | active | PRAG1 (GeneID 157285) | 2
0.086 | -0.0424 | 0.0979 | 0.972 | 0.557 | inactive | PRAG1 (GeneID 157285) | 3
0.0799 | -0.161 | 0.098 | 0.94 | 0.542 | inactive | PRAG1 (GeneID 157285) | 4

5 entries already listed, arranged by “viability, siRNA with trametinib”, high to low.
synergy score with trametinib | synergy score with BYL719 | synergy score with cetuximab | viability, siRNA with DMSO | viability, siRNA with trametinib | call | Target gene | reagent
0.105 | 0.0263 | 0.0951 | 0.895 | 0.488 | active | MPP3 (GeneID 4356) | 1
0.0378 | -0.0802 | -0.000752 | 0.355 | 0.197 | inactive | PLK1 (GeneID 5347) | 2
0.068 | -0.0355 | 0.0632 | 0.342 | 0.158 | inactive | PLK1 (GeneID 5347) | 4
0.103 | 0.0671 | 0.0966 | 0.391 | 0.156 | active | PLK1 (GeneID 5347) | 3
0.109 | 0.0594 | 0.113 | 0.369 | 0.135 | active | PLK1 (GeneID 5347) | 1

Continued.
synergy score with trametinib | synergy score with BYL719 | synergy score with cetuximab | viability, siRNA with DMSO | viability, siRNA with trametinib | call | Target gene | reagent
-0.133 | -0.0747 | -0.0552 | 0.941 | 0.755 | inactive | MAPKAPK2 (GeneID 9261) | 1
0.074 | 0.0599 | 0.0338 | 0.936 | 0.545 | inactive | MAPKAPK2 (GeneID 9261) | 2
0.277 | 0.149 | 0.193 | 0.773 | 0.235 | active | MAPKAPK2 (GeneID 9261) | 3
0.0501 | 0.00589 | 0.0301 | 0.851 | 0.513 | inactive | MAPKAPK2 (GeneID 9261) | 4
-0.0265 | -0.0978 | -0.124 | 0.846 | 0.586 | inactive | CAMK2N1 (GeneID 55450) | 1
0.0558 | 0.165 | 0.0271 | 0.889 | 0.533 | active | CAMK2N1 (GeneID 55450) | 2
0.167 | -0.0341 | 0.0392 | 0.733 | 0.317 | active | CAMK2N1 (GeneID 55450) | 3
-0.00923 | -0.141 | -0.066 | 0.373 | 0.256 | inactive | CAMK2N1 (GeneID 55450) | 4
0.147 | -0.0924 | 0.0729 | 0.575 | 0.233 | active | PFKFB3 (GeneID 5209) | 1
0.149 | -0.0345 | 0.0688 | 0.45 | 0.149 | active | PFKFB3 (GeneID 5209) | 2
0.0621 | 0.0947 | -0.0464 | 0.797 | 0.465 | inactive | PFKFB3 (GeneID 5209) | 3
0.193 | 0.1 | 0.123 | 0.929 | 0.422 | active | PFKFB3 (GeneID 5209) | 4
0.176 | 0.0794 | 0.0588 | 0.785 | 0.343 | active | RPS6KA4 (GeneID 8986) | 1
0.156 | -0.0388 | 0.0368 | 0.945 | 0.47 | active | RPS6KA4 (GeneID 8986) | 2
0.157 | -0.0591 | 0.0391 | 0.808 | 0.378 | active | RPS6KA4 (GeneID 8986) | 3
0.0977 | -0.14 | -0.0185 | 0.803 | 0.434 | inactive | RPS6KA4 (GeneID 8986) | 4
0.199 | 0.0232 | -0.0452 | 0.8 | 0.33 | active | GTF2H1 (GeneID 2965) | 1
0.0779 | 0.0275 | 0.0797 | 0.921 | 0.531 | inactive | GTF2H1 (GeneID 2965) | 2
0.0795 | -0.107 | 0.036 | 0.757 | 0.421 | inactive | GTF2H1 (GeneID 2965) | 3
0.191 | 0.0403 | 0.0878 | 0.582 | 0.194 | active | GTF2H1 (GeneID 2965) | 4
